Experimental data from the supplement of paper PMC10338343.
± gives the standard deviation. Only a part is listed here, and it is no random draw. Many entries were measured with a wide error.

system: EfPiwi piRISC loaded with piRNA #1 (26 nt); experiment: pre-steady-state target cleavage rate (min^-1); guide: piRNA #1 5'p-UGAGGUAGUAGGUUGUAUAGUAUCCA; MIWI and MILI are mouse PIWI proteins and EfPiwi is from a freshwater sponge; tags in brackets are library labels; higher = faster piRNA-guided slicing of the target; conditions: auxiliary factor: 500 nM Ephydatia muelleri Gtsf1
Procedure: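 Cleave-'n-Seq: a library of target RNAs (target site in constant flanks) at […] was incubated with 1 nM active freshwater sponge Ephydatia fluviatilis Piwi piRISC (synthetic 5'-monophosphorylated piRNA guide) with or without 500 nM EmGtsf1 at 33 °C for 1 min to 16 h. Uncleaved targets were sequenced and the pooled three trials fitted to a burst-and-steady-state model to give the pre-steady-state cleavage rate (min^-1). Sequence is the target site only. Fits with R² ≤ 0 are excluded.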

Sequence | pre-steady-state target cleavage rate
GGAGUGCUAACUAUACAACCUACUACCUCA | 0.0117 ± 0.0053
GGAGACCUUACUAAACAACCUACUACCUGA | 0.00102 ± 0.0046
GGAGUGGAUACUAUACAACACUACUACCUCA | 0.00629 ± 0.003
GGAGACCUAUGAUAUGUUGCUACUAUCUCA | 0.00108 ± 0.0043
GGAGACCUAAAUAUACAACCUACUACCUCA | 0.0102 ± 0.0046
GGAGACCUUUCUAUACAACCUACUUCCUCA | 0.00184 ± 0.0046
GGAGACCUAUGAUUACUACCAACUACCUCA | 0.00029 ± 0.011
GGAGACCUAUGAUAUGUUGGUUCUACGUCA | 0.000221 ± 0.0088
GGAGACCUAUGAUAACAACCGACUACCUCA | 0.00133 ± 0.0062
GGAGACCUAACUAUACAACCAACUUCCUCA | 0.00234 ± 0.0066
GGAGACCUAUGAUAUCAACCUACUACGUCA | 0.00074 ± 0.007
GGAGACCAUACUAAACAACCUACUAGCUCA | 0.00109 ± 0.0056
GGAGACCUAUGAAUAACAACCUACUACCUCA | 0.000909 ± 0.0071
GGAGACCAUACUAUACACCUACUACCUCA | 0.00694 ± 0.0042
GGAGACCUAUGAUAUGUUGCUACUACCUGCA | 0.000238 ± 0.012
GGAGACCUUACUAUACAACGCUACUACCUCA | 0.00566 ± 0.0038
GGAGUGGAUACUAUACAACCUACUACCUCCA | 0.274 ± 0.077
GGAGACCAUAACUAUACAACCUACUACCUCA | 0.138 ± 0.043
GGAGUGGAUAGUAUACUACCUACUACCUCA | 0.00287 ± 0.0021
GGAGACCUUACUAUACUACCUACAACCUCA | 0.00126 ± 0.0053

Sequence | pre-steady-state target cleavage rate
GGAGACCUUCCUAUACAACCUACUACCUCA | 0.00433 ± 0.0054
GGAGACCUAUGAUAUGAUCGUACUACCUCA | 0.00188 ± 0.0046
GGAGACCUAUGAUAUCACCCUACUACCUCA | 0.000917 ± 0.009
GGAGACCAUACUAUACAACCUAUACCUCA | 0.00351 ± 0.0036
GGAGACCAUACUAUUGAACCUACUACCUCA | 0.00213 ± 0.0029
GGAGAGGAAACUAUACAACGUACUACCUCA | 0.00339 ± 0.0016
GGAGACCUUACUAUACAACCUAGUACCUCA | 0.00384 ± 0.0019
GGAGAGGAUACUAUUCAACCUACAACCUCA | 0.00238 ± 0.0017
GGAGACGAUACUAUACAACCUAGAUGGAGA [g9:g24:cont:t1A] | 0.00285 ± 0.0039
GGAGACCAUACUAUACAACCUACUUACCUCA | 0.00697 ± 0.0031
GGAGACCUUACUAUGACAACCUACUACCUCA | 0.00456 ± 0.0042
GGAGACCAAACUUUACAACCUACUACCUCA | 0.011 ± 0.0057
GGAGACCUAUGAUUACAACCAACUAGCUCA | 0.000492 ± 0.0095
GGAGACGAUACUAUACUAGCUACUACCUCA | 0.00469 ± 0.0025
GGAGUGGAUACUAUACAACCUUACUACCUCA | 0.00695 ± 0.0034
GGAGACCUAUGAAAACAACCAACUACCUCA | 0.000175 ± 0.016
GGAGACCUAUGAUAUGUUGCUACUACCGCA | 0.000258 ± 0.01
GGAGACCUAUGAUAUGUUGCUAGUACCUCA | 0.00044 ± 0.0091
GGAGACCUAACUAUAGAACCUACUACCUCA | 0.0023 ± 0.0045
GGAGACCUAUGUAUAGAACGUACUACCUCA | 0.000255 ± 0.01
